# Taken from: PubChem BioAssay AID743121 (NCATS, 2013)
# Screen: 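Partners whose loss is lethal together with topoisomerase I blockade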 (primary screen)
# Cells: MDA-MB-231 cells, a human breast cancer line
# Knock-down reagent: single siRNA against human genes, 20 nM siRNA (0.8 pmol per well)
# Duration: 120 h (drug added 48 h after transfection, read 72 h later)
# Conditions: camptothecin 20 nM (about EC30) for 72 h; vehicle 0.1% DMSO in parallel plates
# Detection: 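CellTiter-Glo ATP signal, scaled to control siRNA as percent viability; sensitisation given as log2 of untreated divided by camptothecin-treated viability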
# Direction: log2 vehicle/camptothecin viability: higher = stronger sensitisation to camptothecin
# Call rule: 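Each gene scored by redundant siRNA activity (RSA) over its individual siRNA ratios; a gene is called active at p < 0.001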
# The deposit covers about 26,000 reagents; this is a part drawn at random. 167 of all reagents (0.63%) were called active. 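Calls are per gene from RSA p-values that are not deposited; an individual active-marked siRNA can sensitise only weakly.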 Reagents against one gene are numbered here. Further read-outs or replicates are left out here.
gene,siRNA no.,log2 vehicle/camptothecin viability,activity call
CCL17 (GeneID 6361),1,-0.201,inactive
CCL17 (GeneID 6361),2,-0.223,inactive
CCL17 (GeneID 6361),3,-0.541,inactive
CCL17 (GeneID 6361),4,-0.546,inactive
HPD (GeneID 3242),1,-0.905,inactive
HPD (GeneID 3242),2,-0.618,inactive
HPD (GeneID 3242),3,-0.128,inactive
LPXN (GeneID 9404),1,-0.218,inactive
LPXN (GeneID 9404),2,0.213,inactive
LPXN (GeneID 9404),3,-0.466,inactive
LPXN (GeneID 9404),4,-0.167,inactive
TTK (GeneID 7272),1,-0.726,inactive
TTK (GeneID 7272),2,-0.251,inactive
TTK (GeneID 7272),3,-0.63,inactive
TTK (GeneID 7272),4,-0.752,inactive
BMPR1B (GeneID 658),1,-0.487,inactive
BMPR1B (GeneID 658),2,-0.43,inactive
BMPR1B (GeneID 658),3,-0.173,inactive
BMPR1B (GeneID 658),4,0.00623,inactive
HSD17B13 (GeneID 345275),1,0.00692,inactive
HSD17B13 (GeneID 345275),2,0.133,inactive
HSD17B13 (GeneID 345275),3,-0.317,inactive
HSD17B13 (GeneID 345275),4,0.0398,inactive
HSD17B7P2 (GeneID 158160),1,-0.613,inactive
LRP5 (GeneID 4041),1,-0.185,inactive
LRP5 (GeneID 4041),2,0.378,inactive
LRP5 (GeneID 4041),3,-0.0625,inactive
LRP5 (GeneID 4041),4,0.209,inactive
COMP (GeneID 1311),1,-0.408,inactive
COMP (GeneID 1311),2,-0.146,inactive
COMP (GeneID 1311),3,-0.015,inactive
COMP (GeneID 1311),4,0.0394,inactive
RNF19B (GeneID 127544),1,-0.115,inactive
RNF19B (GeneID 127544),2,0.335,inactive
RNF19B (GeneID 127544),3,-0.134,inactive
RNF19B (GeneID 127544),4,-0.414,inactive
RAB9A (GeneID 9367),1,0.241,inactive
RAB9A (GeneID 9367),2,-0.417,inactive
RAB9A (GeneID 9367),3,-0.139,inactive
RAB9A (GeneID 9367),4,-0.254,inactive
PTPRR (GeneID 5801),1,-0.0886,inactive
PTPRR (GeneID 5801),2,-0.353,inactive
PTPRR (GeneID 5801),3,-0.202,inactive
PTPRR (GeneID 5801),4,-0.114,inactive
KEL (GeneID 3792),1,-0.0985,inactive
KEL (GeneID 3792),2,0.985,inactive
KEL (GeneID 3792),3,-0.182,inactive
KEL (GeneID 3792),4,-0.169,inactive
BAZ1B (GeneID 9031),1,-0.0567,inactive
BAZ1B (GeneID 9031),2,0.0891,inactive
BAZ1B (GeneID 9031),3,-0.183,inactive
BAZ1B (GeneID 9031),4,-0.205,inactive
SNX13 (GeneID 23161),1,0.0473,inactive
SNX13 (GeneID 23161),2,-0.497,inactive
SNX13 (GeneID 23161),3,0.108,inactive
SNX13 (GeneID 23161),4,-0.271,inactive
AKAP10 (GeneID 11216),1,-0.399,inactive
AKAP10 (GeneID 11216),2,-0.429,inactive
AKAP10 (GeneID 11216),3,-0.0293,inactive
AKAP10 (GeneID 11216),4,-0.086,inactive
RNF26 (GeneID 79102),1,-0.065,inactive
RNF26 (GeneID 79102),2,0.188,inactive
RNF26 (GeneID 79102),3,-0.188,inactive
RNF26 (GeneID 79102),4,-0.16,inactive
ETS2 (GeneID 2114),1,-0.38,inactive
ETS2 (GeneID 2114),2,-0.559,inactive
ETS2 (GeneID 2114),3,-0.0791,inactive
FOXE1 (GeneID 2304),1,-0.174,inactive
FOXE1 (GeneID 2304),2,-0.525,inactive
FOXE1 (GeneID 2304),3,-0.131,inactive
FOXE1 (GeneID 2304),4,0.169,inactive

11 neighbouring records already listed, for reference:
gene,siRNA no.,log2 vehicle/camptothecin viability,activity call
RAB9A (GeneID 9367),2,-0.417,inactive
RAB9A (GeneID 9367),3,-0.139,inactive
RAB9A (GeneID 9367),4,-0.254,inactive
PTPRR (GeneID 5801),1,-0.0886,inactive
PTPRR (GeneID 5801),2,-0.353,inactive
PTPRR (GeneID 5801),3,-0.202,inactive
PTPRR (GeneID 5801),4,-0.114,inactive
KEL (GeneID 3792),1,-0.0985,inactive
KEL (GeneID 3792),2,0.985,inactive
KEL (GeneID 3792),3,-0.182,inactive
KEL (GeneID 3792),4,-0.169,inactive
